Source: patent US7341752B2, “Antibacterial treatment and composition” (Academia Sinica, priority 2005, dated 2008)
Some entries share one result that the patent states for a list of compounds.

Test system: Listeria
Experiment: Treatment of Listeria infection in mice (centaurein, ampicillin or combination given after infection), survival
Format: in vivo, C57BL/6J mice
Conditions: after 5 days

## COc1ccc(-c2oc3cc(O[C@@H]4O[C@H](CO)[C@@H](O)[C@H](O)[C@H]4O)c(OC)c(O)c3c(=O)c2OC)cc1O [centaurein]
Centaurein 20 μg alone i.p. twelve hours after Listeria
  mice surviving the infection: ≤ 65%

## CC1(C)S[C@@H]2[C@H](NC(=O)[C@H](N)c3ccccc3)C(=O)N2[C@H]1C(=O)O [ampicillin, reference compound]
Ampicillin 5 μg alone i.p. twelve hours after Listeria
  mice surviving the infection: ≤ 65%
